Assay results taken from patent publication US20230287071A1.
Results are given in words; binding and its absence hold for the method and conditions named. A result given as binding can be weak or reduced; the word gives no strength.

B1: … (SEQ ID NO: 308) (peptide)
peptide: EEPKIDFRVY
B2: … (SEQ ID NO: 292) (peptide)
peptide: HELALRQTV
B3: … (SEQ ID NO: 303) (peptide)
peptide: GEDAHLTQY
B4: MEQQSQEY (SEQ ID NO: 315) (peptide)
peptide: MEQQSQEY
B5: DEQLLLRF (SEQ ID NO: 291) (peptide)
peptide: DEQLLLRF
B6: … (SEQ ID NO: 325) (peptide)
peptide: AEQEIMKKV
B7: … (SEQ ID NO: 24) (peptide)
peptide: EELALRIGL
B8: … (SEQ ID NO: 294) (peptide)
peptide: EEWEWIQKL
B9: … (SEQ ID NO: 318) (peptide)
peptide: SESSSFLKV
B10: … (SEQ ID NO: 324) (peptide)
peptide: QELSSIRQF
B11: … (SEQ ID NO: 321) (peptide)
peptide: AENPLNIFYI
B12: … (SEQ ID NO: 316) (peptide)
peptide: RLWPEPENW
B13: DELSVGRY (SEQ ID NO: 286) (peptide)
peptide: DELSVGRY
B14: … (SEQ ID NO: 302) (peptide)
peptide: EGEDAHLTQY
B15: … (SEQ ID NO: 329) (peptide)
peptide: SEPQITVNF
B16: … (SEQ ID NO: 312) (peptide)
peptide: KEWEREKAVSL
B17: … (SEQ ID NO: 320) (peptide)
peptide: AENPLNIFY
B18: … (SEQ ID NO: 301) (peptide)
peptide: AERIMFSDL
B19: … (SEQ ID NO: 306) (peptide)
peptide: RRHPSFKRF
B20: … (SEQ ID NO: 297) (peptide)
peptide: DEYLIPQQGFF
B21: … (SEQ ID NO: 287) (peptide)
peptide: REVSVVDIL
B22: … (SEQ ID NO: 283) (peptide)
peptide: VEEEISRHY
B23: … (SEQ ID NO: 330) (peptide)
peptide: SEHLFGTSY
B24: … (SEQ ID NO: 327) (peptide)
peptide: SEQHSLPVF
B25: … (SEQ ID NO: 319) (peptide)
peptide: YEWEPFAEV
B26: … (SEQ ID NO: 299) (peptide)
peptide: AEVQIARKL
B27: … (SEQ ID NO: 288) (peptide)
peptide: TEHFLKKFF
B28: … (SEQ ID NO: 300) (peptide)
peptide: KQTEATMTF
B29: … (SEQ ID NO: 285) (peptide)
peptide: AEHPDFSPCSF
B30: … (SEQ ID NO: 326) (peptide)
peptide: RELLDFSSW
B31: … (SEQ ID NO: 322) (peptide)
peptide: REESDWHYL
B32: … (SEQ ID NO: 307) (peptide)
peptide: YEQLLKVVTW
B33: … (SEQ ID NO: 21) (peptide)
peptide: SEAKEIKSQL
B34: … (SEQ ID NO: 298) (peptide)
peptide: KEVASNSEL
B35: … (SEQ ID NO: 311) (peptide)
peptide: REKDLPNYNW
B36: … (SEQ ID NO: 296) (peptide)
peptide: AETIFIVRL
B37: … (SEQ ID NO: 305) (peptide)
peptide: AEKNRRDAETW
B38: … (SEQ ID NO: 22) (peptide)
peptide: TEEITEGVW
B39: … (SEQ ID NO: 20) (peptide)
peptide: LEALLSDLF
B40: … (SEQ ID NO: 284) (peptide)
peptide: SQYPHTHTF
B41: … (SEQ ID NO: 310) (peptide)
peptide: FELECPVKY
B42: … (SEQ ID NO: 323) (peptide)
peptide: SETAVVNVTY
B43: … (SEQ ID NO: 309) (peptide)
peptide: SDDLRNVTW
B44: … (SEQ ID NO: 293) (peptide)
peptide: QEDEQLLLRF
B45: … (SEQ ID NO: 313) (peptide)
peptide: EEINQGGRKY
B46: … (SEQ ID NO: 290) (peptide)
peptide: AECILSKRL
B47: … (SEQ ID NO: 304) (peptide)
peptide: RELGFTEATGW
B48: … (SEQ ID NO: 295) (peptide)
peptide: QELEQEVISL
B49: EMREERKF (SEQ ID NO: 314) (peptide)
peptide: EMREERKF
B50: … (SEQ ID NO: 317) (peptide)
peptide: TEFQQIINL

molecular target: HLA-B*44:05 (human); experiment: UV peptide-exchange ELISA, yield grade

binding, binds:
B1
B2
B3
B4
B5
B6
B7
B8
B9
B10
B11
B12
B13
B14
B15
B16
B17
B18
B19
B20
B21
B22
B23
B24
B25
B26
B27
B28
B29
B30
B31
B32
B33
B34
B35
B36
B37
B38
B39
B40
B41
B42
B43
B44
B45
B46
B47
B48
B49
B50
